Test results published in publication PMC8034953.
No constants are given. Whether binding was seen depends on the method and setting. Binding seen in cells or lysates may run through a third protein. Some entries that bind do so weakly or less than the wild type.

By UniProt entry, the sequences of proteins in these tests, tags left out.
UniProt P19484: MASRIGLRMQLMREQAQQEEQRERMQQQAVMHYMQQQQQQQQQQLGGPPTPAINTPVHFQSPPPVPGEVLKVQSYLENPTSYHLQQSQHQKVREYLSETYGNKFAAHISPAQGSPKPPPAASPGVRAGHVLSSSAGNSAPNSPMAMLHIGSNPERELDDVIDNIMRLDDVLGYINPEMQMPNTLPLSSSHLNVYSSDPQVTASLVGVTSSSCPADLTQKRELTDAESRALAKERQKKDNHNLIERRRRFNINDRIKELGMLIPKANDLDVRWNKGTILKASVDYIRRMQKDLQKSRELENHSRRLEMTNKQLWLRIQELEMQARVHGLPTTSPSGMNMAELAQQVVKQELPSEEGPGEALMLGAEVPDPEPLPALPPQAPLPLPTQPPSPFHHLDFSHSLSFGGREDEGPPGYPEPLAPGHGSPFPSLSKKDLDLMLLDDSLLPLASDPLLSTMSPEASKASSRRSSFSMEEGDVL

Target: Transcription factor EB (human (endogenous in HK2)) (UniProt P19484)
Assay: co-IP; HK2 whole-cell extracts (1 mg protein in 100 μL lysis buffer), precleared; 1 μg rabbit anti-PGC-1α or rabbit anti-TFEB overnight at 4 °C, protein A/G agarose; western blot for TFEB and PGC-1α; anti-IgG as negative control

binding: binds
B1: peroxisome proliferator-activated receptor γ coactivator-1 alpha (protein, UniProt Q9UBK2-1 1-798)
chain: MAWDMCNQDSESVWSDIECAALVGEDQPLCPDLPELDLSELDVNDLDTDSFLGGLKWCSDQSEIISNQYNNEPSNIFEKIDEENEANLLAVLTETLDSLPVDEDGLPSFDALTDGDVTTDNEASPSSMPDGTPPPQEAEEPSLLKKLLLAPANTQLSYNECSGLSTQNHANHNHRIRTNPAIVKTENSWSNKAKSICQQQKPQRRPCSELLKYLTTNDDPPHTKPTENRNSSRDKCTSKKKSHTQSQSQHLQAKPTTLSLPLTPESPNDPKGSPFENKTIERTLSVELSGTAGLTPPTTPPHKANQDNPFRASPKLKSSCKTVVPPPSKKPRYSESSGTQGNNSTKKGPEQSELYAQLSKSSVLTGGHEERKTKRPSLRLFGDHDYCQSINSKTEILINISQELQDSRQLENKDVSSDWQGQICSSTDSDQCYLRETLEASKQVSPCSTRKQLQDQEIRAELNKHFGHPSQAVFDDEADKTGELRDSDFSNEQFSKLPMFINSGLAMDGLFDDSEDESDKLSYPWDGTQSYSLFNVSPSCSSFNSPCRDSVSPPKSLFSQRPQRMRSRSRSFSRHRSCSRSPYSRSRSRSPGSRSSSRSCYYYESSHYRHRTHRNSPLYVRSRSRSPYSRRPRYDSYEEYQHERLKREEYRREYEKRESERAKQRERQRQKAIEERRVIYVGKIRPDTTRTELRDRFEVFGEIEECTVNLRDDGDSYGFITYRYTCDAFAALENGYTLRRSNETDFELYFCGRKQFFKSNYADLDSNSDDFDPASTKSKYDSLDFDSLLKEAQRSLRR
